Reference: PMC3386182

Experiments:
Assay in all cases: SPR
[1] = molecular target: T1, Erg1-399 (Homo sapiens (human)) (UniProt P11308); conditions: SPR (BIAcore 2000, Ni-NTA chip, protein immobilized, DNA 1-3 uM): 10 mM HEPES pH 7.4, 150 mM NaCl, 0.005% P20, 25 C, 10 ul/min; 1:1 Langmuir fit; recombinant protein; residues 1-399
T1 sequence (looked up): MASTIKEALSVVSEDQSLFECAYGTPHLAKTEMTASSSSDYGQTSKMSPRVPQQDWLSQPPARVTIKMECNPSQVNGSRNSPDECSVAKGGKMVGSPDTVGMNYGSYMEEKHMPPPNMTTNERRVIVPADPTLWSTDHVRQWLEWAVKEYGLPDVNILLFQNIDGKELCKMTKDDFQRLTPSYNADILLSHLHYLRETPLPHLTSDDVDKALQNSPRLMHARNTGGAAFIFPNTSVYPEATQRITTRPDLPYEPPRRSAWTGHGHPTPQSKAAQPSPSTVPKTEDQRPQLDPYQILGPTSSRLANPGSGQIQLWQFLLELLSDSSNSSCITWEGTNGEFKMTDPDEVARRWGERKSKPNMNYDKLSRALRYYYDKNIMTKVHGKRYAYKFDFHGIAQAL

[2] = molecular target: T2, Erg1-479 (full length Ergp55) (Homo sapiens (human)) (UniProt P11308); conditions: SPR (BIAcore 2000, Ni-NTA chip, protein immobilized, DNA 1-3 uM): 10 mM HEPES pH 7.4, 150 mM NaCl, 0.005% P20, 25 C, 10 ul/min; 1:1 Langmuir fit; recombinant protein; residues 1-479
T2 sequence (looked up): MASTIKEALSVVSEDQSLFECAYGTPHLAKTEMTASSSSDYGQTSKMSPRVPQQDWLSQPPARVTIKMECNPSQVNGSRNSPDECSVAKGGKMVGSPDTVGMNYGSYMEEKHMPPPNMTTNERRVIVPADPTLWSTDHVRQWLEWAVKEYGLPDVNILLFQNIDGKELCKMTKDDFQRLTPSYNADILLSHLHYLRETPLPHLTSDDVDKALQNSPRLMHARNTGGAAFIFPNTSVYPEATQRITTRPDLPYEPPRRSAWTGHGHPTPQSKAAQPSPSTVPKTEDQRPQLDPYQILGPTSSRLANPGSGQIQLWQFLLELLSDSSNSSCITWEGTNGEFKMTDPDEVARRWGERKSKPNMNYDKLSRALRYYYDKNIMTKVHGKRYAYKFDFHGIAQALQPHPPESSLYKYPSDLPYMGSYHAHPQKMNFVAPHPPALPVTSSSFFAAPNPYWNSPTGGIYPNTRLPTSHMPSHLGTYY

[3] = molecular target: T3, Erg112-399 (Homo sapiens (human)) (UniProt P11308); conditions: SPR (BIAcore 2000, Ni-NTA chip, protein immobilized, DNA 1-3 uM): 10 mM HEPES pH 7.4, 150 mM NaCl, 0.005% P20, 25 C, 10 ul/min, 1:1 Langmuir fit, recombinant protein, residues 112-399
T3 sequence (looked up): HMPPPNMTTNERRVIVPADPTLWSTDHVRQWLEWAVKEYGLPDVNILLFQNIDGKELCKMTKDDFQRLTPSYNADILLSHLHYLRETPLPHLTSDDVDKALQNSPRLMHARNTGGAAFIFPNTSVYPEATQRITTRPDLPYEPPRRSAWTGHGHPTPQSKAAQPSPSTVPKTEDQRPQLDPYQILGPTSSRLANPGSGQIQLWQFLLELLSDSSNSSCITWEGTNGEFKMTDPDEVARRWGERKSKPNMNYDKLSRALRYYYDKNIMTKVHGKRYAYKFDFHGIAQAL

[4] = molecular target: T4, Erg307-399 (Ets domain) (Homo sapiens (human)) (UniProt P11308); conditions: SPR (BIAcore 2000, Ni-NTA chip, protein immobilized, DNA 1-3 uM): 10 mM HEPES pH 7.4, 150 mM NaCl, 0.005% P20, 25 C, 10 ul/min, 1:1 Langmuir fit, recombinant protein, residues 307-399
T4 sequence (looked up): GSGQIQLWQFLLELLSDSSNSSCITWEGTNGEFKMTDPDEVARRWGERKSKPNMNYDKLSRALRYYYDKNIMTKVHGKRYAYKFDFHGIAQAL

| Sequence | Kd [1] [nM] | Kd [2] [nM] | Kd ([3]; Discussion gives 37 uM) [nM] | Kd ([4]; Discussion gives 0.4 uM) [nM] | Kd [3] [nM] | Kd [4] [nM] |
| --- | --- | --- | --- | --- | --- | --- |
| GACAGGATGTG (double strand) [cfos promoter DNA] | 196000 | 232000 | 38000 | 450 |  |  |
| TACCGGAAGT (double strand) [E74 promoter DNA] | 217 | 704 |  |  | 115 | 65 |

The exact form of at least one protein or probe is not confirmed. Tags and fusion partners may be left off the protein sequences shown.
